In patent publication US11707471B2, “ENPP1 inhibitors and their use for the treatment of cancer” (The Board of Trustees of the Leland Stanford Junior …, priority 2017, dated 2023):
At least one compound was matched to its structure with a doubt left.

Test system: 4T1 tumor
Test: Tumor-associated dendritic cells in mouse 4T1 tumor model (FACS)
Assay type: in vivo
Settings: intratumoral 100 μL of 1 mM, without IR

## COc1cc2ncnc(N3CCC(CCP(=O)(O)O)CC3)c2cc1OC [Compound 1, dimethyl (2-(1-(6,7-dimethoxyquinazolin-4-yl)piperidin-4-yl)ethyl)phosphonic acid]
  tumor-associated leukocyte compositions compared to PBS control: did not change
